This passage reports binding results from article PMC11423161.

Sequences of proteins named here, by UniProt entry; tags and fusion partners are left off. A change or cut given only in a name is not applied to a line headed by its entry.
UniProt P63331: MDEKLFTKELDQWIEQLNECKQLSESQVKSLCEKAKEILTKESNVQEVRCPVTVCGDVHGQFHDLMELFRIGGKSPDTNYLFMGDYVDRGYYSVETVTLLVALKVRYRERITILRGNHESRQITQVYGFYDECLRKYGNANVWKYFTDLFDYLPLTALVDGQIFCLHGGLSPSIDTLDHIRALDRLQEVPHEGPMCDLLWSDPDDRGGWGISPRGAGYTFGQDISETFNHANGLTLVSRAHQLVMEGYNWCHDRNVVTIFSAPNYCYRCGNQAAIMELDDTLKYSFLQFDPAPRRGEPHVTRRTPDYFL
UniProt D3ZMG0: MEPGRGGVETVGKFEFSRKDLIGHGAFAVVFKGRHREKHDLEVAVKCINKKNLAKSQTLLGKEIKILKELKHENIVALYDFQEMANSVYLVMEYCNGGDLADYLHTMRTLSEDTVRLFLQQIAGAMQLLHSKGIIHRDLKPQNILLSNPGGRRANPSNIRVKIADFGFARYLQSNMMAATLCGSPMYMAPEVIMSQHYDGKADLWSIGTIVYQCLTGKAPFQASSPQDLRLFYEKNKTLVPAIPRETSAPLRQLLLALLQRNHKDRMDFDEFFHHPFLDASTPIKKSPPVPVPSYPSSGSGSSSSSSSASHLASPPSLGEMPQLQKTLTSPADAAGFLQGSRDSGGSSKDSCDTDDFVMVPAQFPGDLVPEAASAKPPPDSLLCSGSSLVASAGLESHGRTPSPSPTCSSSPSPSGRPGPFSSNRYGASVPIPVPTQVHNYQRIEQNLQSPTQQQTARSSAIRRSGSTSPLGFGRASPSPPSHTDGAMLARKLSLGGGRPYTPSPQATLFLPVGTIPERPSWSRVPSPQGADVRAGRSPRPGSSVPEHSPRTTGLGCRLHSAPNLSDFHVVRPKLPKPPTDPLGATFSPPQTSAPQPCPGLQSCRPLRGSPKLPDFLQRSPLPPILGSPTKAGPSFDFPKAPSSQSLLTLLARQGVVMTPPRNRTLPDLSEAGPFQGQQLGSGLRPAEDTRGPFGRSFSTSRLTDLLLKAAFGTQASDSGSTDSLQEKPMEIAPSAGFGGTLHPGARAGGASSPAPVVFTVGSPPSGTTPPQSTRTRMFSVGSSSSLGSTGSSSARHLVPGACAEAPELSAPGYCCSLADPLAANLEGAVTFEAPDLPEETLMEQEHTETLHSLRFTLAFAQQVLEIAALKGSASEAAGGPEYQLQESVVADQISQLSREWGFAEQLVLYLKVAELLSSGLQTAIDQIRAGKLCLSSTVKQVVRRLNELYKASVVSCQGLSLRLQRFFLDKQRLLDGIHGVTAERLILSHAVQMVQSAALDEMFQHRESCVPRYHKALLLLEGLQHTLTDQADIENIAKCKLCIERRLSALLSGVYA

No constants are given. Whether binding was seen depends on the method and setting. In cells and extracts the contact can be indirect. Binding can be weak; no strength is given.

The test addresses catalytic subunit of protein phosphatase 2A (PP2Ac) (rat (endogenous in BMMs of SD rats)) (UniProt P63331). As to the kind of experiment: co-IP; endogenous proteins in lysates of rat BMMs, with or without RANKL for 16 h and with or without PP2Ac siRNA; 1 µg primary antibody and Protein A/G magnetic beads, 4 °C overnight; co-precipitated ULK1 detected by western blot. (In general: A western blot detects proteins with antibodies after separation by electrophoresis.)

Turning to ULK1 (from UniProt D3ZMG0) (enzyme), the binding result is “binds”.
